Reference: the supplement of paper PMC12819154, “High-throughput peptide-centric local stability assay extends protein–ligand identification to membrane proteins, tissues and bacteria” (Nature Structural & Molecular Biology, 2025)
The other results are listed elsewhere or left out. Most values lie at the level of the controls, where differences are scatter.

Sequences of proteins named here, by UniProt entry; tags and fusion partners are left off. A change or cut given only in a name is not applied to a line headed by its entry.
UniProt Q8CHR6: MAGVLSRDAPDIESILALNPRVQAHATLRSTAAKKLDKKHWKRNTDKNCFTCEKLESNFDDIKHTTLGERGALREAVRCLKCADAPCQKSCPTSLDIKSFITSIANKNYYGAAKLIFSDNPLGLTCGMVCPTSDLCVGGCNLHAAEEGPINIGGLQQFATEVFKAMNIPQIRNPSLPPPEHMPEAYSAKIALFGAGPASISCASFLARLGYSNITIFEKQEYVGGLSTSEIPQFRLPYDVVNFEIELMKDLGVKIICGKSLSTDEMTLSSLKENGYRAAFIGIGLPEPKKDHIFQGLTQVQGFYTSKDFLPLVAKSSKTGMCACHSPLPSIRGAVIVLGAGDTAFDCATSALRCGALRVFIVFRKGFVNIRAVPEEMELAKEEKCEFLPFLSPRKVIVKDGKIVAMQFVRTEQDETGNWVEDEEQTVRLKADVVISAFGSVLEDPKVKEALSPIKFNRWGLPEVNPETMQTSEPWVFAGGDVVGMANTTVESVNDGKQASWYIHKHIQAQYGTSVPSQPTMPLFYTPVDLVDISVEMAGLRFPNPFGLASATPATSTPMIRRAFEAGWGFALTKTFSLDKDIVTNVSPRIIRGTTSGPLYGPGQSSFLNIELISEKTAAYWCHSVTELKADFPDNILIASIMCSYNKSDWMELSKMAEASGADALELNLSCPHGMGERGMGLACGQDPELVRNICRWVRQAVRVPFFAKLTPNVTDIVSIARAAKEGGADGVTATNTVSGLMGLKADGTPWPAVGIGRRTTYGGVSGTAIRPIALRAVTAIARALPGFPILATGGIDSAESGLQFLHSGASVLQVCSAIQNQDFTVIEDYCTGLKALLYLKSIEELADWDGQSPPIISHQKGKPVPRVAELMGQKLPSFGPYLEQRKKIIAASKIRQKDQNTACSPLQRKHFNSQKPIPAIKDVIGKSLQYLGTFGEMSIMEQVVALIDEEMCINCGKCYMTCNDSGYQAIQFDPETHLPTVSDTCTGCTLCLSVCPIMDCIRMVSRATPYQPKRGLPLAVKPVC
UniProt Q8R4Y4: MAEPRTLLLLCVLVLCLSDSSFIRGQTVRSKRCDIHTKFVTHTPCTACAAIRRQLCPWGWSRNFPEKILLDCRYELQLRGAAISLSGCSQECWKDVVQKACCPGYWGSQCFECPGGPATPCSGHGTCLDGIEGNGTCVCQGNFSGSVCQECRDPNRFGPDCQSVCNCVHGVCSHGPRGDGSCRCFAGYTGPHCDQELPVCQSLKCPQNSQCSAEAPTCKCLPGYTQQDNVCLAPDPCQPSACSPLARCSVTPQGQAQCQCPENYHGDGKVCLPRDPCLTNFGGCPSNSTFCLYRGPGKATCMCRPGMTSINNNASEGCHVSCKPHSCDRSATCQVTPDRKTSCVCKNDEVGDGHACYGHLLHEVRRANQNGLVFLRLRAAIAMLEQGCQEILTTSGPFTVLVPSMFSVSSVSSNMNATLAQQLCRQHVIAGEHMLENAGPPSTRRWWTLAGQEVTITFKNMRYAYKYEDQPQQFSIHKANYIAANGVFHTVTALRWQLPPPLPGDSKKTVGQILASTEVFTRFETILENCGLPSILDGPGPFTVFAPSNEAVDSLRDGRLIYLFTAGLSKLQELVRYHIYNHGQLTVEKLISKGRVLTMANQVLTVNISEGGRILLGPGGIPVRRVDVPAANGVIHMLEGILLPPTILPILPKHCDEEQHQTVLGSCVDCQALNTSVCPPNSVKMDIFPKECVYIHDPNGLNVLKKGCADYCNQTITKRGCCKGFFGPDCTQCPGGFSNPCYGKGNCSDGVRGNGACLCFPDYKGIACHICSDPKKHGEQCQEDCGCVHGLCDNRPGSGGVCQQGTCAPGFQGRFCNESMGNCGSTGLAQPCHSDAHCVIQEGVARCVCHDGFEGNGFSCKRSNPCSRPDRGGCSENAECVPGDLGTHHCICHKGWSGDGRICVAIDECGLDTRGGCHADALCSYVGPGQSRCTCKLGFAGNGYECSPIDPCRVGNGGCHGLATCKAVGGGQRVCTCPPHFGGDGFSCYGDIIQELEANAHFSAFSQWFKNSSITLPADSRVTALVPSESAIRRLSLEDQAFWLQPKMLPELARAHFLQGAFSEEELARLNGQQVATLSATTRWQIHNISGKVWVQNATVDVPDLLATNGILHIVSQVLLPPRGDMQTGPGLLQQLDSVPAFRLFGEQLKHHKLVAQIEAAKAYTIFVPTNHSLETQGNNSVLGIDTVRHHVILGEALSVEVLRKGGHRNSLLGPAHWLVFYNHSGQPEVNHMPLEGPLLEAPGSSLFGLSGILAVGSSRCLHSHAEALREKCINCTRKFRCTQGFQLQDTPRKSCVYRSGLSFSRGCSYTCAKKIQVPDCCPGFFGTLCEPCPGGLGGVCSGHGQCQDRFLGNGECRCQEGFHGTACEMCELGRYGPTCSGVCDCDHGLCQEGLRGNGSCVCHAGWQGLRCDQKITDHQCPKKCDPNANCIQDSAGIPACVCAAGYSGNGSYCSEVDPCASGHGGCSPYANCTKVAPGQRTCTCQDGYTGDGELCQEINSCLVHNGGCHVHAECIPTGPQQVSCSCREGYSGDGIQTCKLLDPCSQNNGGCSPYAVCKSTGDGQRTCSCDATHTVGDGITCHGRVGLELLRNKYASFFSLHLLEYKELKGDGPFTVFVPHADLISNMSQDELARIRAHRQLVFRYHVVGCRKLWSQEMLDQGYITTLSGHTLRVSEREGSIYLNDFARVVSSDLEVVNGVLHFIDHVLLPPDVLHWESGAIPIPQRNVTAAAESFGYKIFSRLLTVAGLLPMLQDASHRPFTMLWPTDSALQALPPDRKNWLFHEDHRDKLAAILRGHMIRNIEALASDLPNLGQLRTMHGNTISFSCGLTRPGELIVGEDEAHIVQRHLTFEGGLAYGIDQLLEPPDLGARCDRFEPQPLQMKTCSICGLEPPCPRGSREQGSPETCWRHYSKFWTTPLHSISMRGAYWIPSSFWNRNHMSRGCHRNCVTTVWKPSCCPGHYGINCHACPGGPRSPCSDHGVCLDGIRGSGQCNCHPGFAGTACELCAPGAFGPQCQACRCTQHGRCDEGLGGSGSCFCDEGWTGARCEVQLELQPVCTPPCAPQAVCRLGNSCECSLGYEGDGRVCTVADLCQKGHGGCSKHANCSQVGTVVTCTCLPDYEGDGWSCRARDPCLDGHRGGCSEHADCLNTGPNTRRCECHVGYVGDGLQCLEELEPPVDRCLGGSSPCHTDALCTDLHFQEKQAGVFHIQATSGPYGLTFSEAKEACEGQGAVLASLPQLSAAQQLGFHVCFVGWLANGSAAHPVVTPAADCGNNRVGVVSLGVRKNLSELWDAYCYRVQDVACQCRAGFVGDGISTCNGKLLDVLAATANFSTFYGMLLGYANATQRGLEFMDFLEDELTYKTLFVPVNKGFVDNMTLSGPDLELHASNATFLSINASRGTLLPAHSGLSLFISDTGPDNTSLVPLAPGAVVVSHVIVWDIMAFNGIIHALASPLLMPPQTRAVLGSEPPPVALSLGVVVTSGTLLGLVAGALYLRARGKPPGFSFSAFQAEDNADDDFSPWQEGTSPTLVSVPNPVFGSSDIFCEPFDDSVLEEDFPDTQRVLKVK
UniProt Q8R1S0: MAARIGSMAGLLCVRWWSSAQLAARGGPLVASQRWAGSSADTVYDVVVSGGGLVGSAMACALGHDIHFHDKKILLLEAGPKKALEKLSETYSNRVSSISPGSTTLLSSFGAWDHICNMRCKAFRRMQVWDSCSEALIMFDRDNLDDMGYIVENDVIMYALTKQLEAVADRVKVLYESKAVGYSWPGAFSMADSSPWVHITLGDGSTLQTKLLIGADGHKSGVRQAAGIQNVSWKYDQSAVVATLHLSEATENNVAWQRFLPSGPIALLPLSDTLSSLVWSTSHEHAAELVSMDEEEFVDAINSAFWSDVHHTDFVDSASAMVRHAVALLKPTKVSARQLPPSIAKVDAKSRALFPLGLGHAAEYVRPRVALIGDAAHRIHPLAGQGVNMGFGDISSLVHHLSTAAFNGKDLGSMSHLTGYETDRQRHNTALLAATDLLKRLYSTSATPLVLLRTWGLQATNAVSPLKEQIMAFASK
UniProt Q8R5I6: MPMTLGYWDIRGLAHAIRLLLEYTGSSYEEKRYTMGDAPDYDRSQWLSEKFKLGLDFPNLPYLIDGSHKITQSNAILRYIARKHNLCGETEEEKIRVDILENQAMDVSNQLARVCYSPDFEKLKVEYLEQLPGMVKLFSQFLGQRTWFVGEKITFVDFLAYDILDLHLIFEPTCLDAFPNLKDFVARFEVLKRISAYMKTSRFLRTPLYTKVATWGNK
UniProt Q8R146: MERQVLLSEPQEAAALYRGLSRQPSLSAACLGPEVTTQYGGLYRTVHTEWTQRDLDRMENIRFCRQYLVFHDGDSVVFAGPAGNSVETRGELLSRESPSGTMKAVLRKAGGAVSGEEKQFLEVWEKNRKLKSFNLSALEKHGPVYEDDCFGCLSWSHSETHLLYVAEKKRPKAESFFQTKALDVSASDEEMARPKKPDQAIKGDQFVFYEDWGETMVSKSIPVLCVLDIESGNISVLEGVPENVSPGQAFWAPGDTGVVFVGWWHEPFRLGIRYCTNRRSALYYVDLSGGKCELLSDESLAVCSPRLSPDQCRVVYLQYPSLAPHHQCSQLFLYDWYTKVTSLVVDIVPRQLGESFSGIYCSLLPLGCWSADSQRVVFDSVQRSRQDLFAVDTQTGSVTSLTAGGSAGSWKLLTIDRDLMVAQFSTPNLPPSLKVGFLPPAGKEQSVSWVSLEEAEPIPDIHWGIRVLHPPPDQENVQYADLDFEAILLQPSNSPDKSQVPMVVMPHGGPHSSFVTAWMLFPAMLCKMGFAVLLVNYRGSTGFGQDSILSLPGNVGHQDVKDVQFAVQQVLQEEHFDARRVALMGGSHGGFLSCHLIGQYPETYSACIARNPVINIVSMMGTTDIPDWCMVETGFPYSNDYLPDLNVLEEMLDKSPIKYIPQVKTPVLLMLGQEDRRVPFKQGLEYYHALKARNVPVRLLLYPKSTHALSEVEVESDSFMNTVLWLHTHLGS
UniProt Q8K2F0, whole entry: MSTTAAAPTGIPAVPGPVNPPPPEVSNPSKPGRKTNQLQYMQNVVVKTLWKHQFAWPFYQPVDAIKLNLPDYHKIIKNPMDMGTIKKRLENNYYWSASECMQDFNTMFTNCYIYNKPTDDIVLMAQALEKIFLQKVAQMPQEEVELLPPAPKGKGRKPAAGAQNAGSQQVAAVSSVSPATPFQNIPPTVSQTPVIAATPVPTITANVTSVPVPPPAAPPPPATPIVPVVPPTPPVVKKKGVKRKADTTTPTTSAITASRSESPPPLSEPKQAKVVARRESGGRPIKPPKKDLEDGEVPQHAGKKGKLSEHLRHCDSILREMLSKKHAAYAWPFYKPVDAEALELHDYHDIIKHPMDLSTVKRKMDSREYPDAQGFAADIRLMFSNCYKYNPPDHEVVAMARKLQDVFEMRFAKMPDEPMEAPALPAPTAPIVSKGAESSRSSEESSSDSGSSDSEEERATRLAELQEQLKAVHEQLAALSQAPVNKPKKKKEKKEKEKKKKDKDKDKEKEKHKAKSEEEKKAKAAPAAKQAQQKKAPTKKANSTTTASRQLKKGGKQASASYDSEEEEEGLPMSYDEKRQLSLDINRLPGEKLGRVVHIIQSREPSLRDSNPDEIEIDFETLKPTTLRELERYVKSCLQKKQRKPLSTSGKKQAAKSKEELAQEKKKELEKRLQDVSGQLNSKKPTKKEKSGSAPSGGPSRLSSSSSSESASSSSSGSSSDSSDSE
UniProt Q8R033: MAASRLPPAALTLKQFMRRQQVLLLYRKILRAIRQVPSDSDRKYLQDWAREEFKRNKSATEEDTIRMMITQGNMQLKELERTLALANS
UniProt Q8JZQ5: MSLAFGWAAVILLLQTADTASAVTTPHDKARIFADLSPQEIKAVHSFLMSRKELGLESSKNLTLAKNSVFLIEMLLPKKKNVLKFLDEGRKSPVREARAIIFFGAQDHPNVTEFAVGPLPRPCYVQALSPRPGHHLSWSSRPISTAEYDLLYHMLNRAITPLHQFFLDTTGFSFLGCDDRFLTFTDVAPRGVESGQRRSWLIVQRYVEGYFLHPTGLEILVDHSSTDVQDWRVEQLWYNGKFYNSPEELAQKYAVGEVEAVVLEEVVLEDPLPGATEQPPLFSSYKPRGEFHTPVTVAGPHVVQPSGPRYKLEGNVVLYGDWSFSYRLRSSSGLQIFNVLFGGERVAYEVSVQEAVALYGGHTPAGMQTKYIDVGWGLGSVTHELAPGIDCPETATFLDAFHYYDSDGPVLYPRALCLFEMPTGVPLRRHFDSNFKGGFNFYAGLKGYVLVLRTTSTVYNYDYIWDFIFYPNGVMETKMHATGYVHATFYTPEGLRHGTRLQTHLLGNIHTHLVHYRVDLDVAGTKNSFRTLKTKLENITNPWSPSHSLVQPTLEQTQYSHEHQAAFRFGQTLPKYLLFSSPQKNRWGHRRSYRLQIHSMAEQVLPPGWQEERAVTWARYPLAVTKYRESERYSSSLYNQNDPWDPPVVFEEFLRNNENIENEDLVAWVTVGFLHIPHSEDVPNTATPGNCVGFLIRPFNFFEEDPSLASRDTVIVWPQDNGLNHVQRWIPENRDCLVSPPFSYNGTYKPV

Each target was assayed with CN[C@@H]1C[C@H]2O[C@@](C)([C@@H]1OC)n1c3ccccc3c3c4c(c5c6ccccc6n2c5c31)C(=O)NC4 [staurosporine] (assay: log2 fold change of pooled soluble protein (PISA), ligand vs vehicle (log2 ratio); higher = more thermally stabilized). Details: ligand concentration: 20 uM; assay format: PISA pool 52.9/55.5/58.6 C.

Target | log2 fold change of pooled soluble protein
UniProt Q8K2T4 | 0.223
UniProt Q8QZT1 | -0.0697
UniProt Q8VBW8 | 0.00358
UniProt Q8VC31 | 0.0562
UniProt Q8R180 | 0.341
UniProt Q8CHR6 | -0.0483
UniProt Q8CIN4 | 0.167
UniProt Q8R4Y4 | -0.0313
UniProt Q8R0Y8 | 0.0659
UniProt Q8K183 | -0.446
UniProt Q8K4Z3 | -0.0156
UniProt Q8R1S0 | 0.0405
UniProt Q8VCH8 | 0.403
UniProt Q8K124 | -0.331
UniProt Q8JZY2 | -0.123
UniProt Q8R5I6 | 0.417
UniProt Q8VBZ3 | 0.00101
UniProt Q8VCH6 | -0.0516
UniProt Q8K2B3 | 0.024

Target | log2 fold change of pooled soluble protein
UniProt Q8K1N1 | -0.0327
UniProt Q8R409 | 0.016
UniProt Q8R146 | -0.0266
UniProt Q8K2F0 | -0.0186
UniProt Q8CGK3 | -0.165
UniProt Q8K1Z0 | 0.00556
UniProt Q8R086 | 0.0734
UniProt Q8R574 | -0.111
UniProt Q8CI59 | 0.0546
UniProt Q8K1I3 | 0.0956
UniProt Q8K1B8 | -0.239
UniProt Q8R033 | -0.195
UniProt Q8K4Q8 | -0.00792
UniProt Q8R050 | -0.0587
UniProt Q8JZQ5 | -0.214
UniProt Q8CIG8 | -0.101
UniProt Q8CHP5 | 0.00292
UniProt Q8VBV3 | -0.207

Shown as labelled records: part of the list above
UniProt Q8K2F0
  log2 fold change of pooled soluble protein = -0.0186
UniProt Q8R574
  log2 fold change of pooled soluble protein = -0.111
